Assay results: patent EP4349409A1, “COMPOUNDS FOR THE MANAGEMENT OF CELL STEMNESS AND INVASION IN CANCER AND RELATED DISEASES” (Instituto Biomar S.A., priority 2022, dated 2024)
At least one read-out could not be matched to a standard name with certainty.

Tests used:
T98G = experiment: MTT-based cytotoxicity assay, T98G; type: cell-based
Method: (§1) A dose-response analysis of BMT9 (concentrations ranging from 4.5 µM-18 µM), BCNU (from 150 µM-500 µM) and TMZ (350 µM-700 µM) was performed in two conventional glioblastoma cell lines (T98G, U373) and the GNS cell line G144 by MTT-based cytotoxicity assays (Figure 5A-D). Cells were seeded on p96-well plates and treated with the different compounds for 72 h. Then, the MTT reagent (3-(4,5-Dimethyl-2-thiazolyl)-2,5-diphenyl-2H-tetrazolium bromide diluted in PBS to a concentration of 1mg/ml), was added to each well to a final concentration of 0.33mg/ml, and incubated for 3 h at 37°C. After that, the media was removed, and formazan crystals were solubilized with DMSO. Absorbance was measured at 560 nm using a "Synergy HT" plate reader (Biotek). In the graphs, the Y axis represents the percentage of cell viability relative to non-treated cells. The IC50, when reached are marked by a rectangle. DMSO treatment had no effect on cell viability.

U373 = experiment: MTT-based cytotoxicity assay, U373; type: cell-based, human
Method: as §1

G144 = experiment: MTT-based cytotoxicity assay, G144; type: cell-based, human
Method: as §1, with “viability. […]” for “viability.”
While the first line therapy of gliomas has proven its effectiveness and improved clinical outcomes, acquired chemoresistance to alkylating agents has been identified as a major cause of treatment failure (Sarkaria et al., 2008). […] We then analyzed BMT9 dose-dependent effect on cell viability, by MTT assay, comparing the resistant clones to parental cells.

`C=C1C2CCC(C)(C3COc4c(C)c(OC)c5c(c4C3O)C(O)OC5=O)C1CCC2(C)C` (stereo not drawn) [BMT9] was tested, and the “BMT9 IC50 lower than BCNU IC50 (times reduction)” value (T98G) was 55 times, the “BMT9 IC50 lower than BCNU IC50 (times reduction)” value (U373) was 14 times and the “BMT9 IC50 lower than BCNU IC50 (times reduction)” value (G144) was 55 times.
